In paper doi:10.1101/2023.12.18.572241 one finds binding data, which are given here for 1 substance.

Chains of the proteins cited; added tags and fusions are not shown. Lines headed by an entry give the natural chain unless they say otherwise; changes in a name come on top. A line that says so, or that is headed by a name, gives the form on record, which may keep a tag or linker.
human ghrelin receptor (spFLAG-GHSR1a) (Q92847, form named): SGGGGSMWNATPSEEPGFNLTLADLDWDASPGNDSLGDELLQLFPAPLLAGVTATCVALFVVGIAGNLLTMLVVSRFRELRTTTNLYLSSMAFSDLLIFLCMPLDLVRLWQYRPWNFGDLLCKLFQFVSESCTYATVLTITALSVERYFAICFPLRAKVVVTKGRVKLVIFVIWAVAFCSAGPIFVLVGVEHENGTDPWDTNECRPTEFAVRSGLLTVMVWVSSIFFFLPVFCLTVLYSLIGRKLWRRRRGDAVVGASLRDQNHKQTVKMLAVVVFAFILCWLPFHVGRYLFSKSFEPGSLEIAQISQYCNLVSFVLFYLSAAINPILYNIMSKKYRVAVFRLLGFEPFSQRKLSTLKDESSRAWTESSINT
human dopamine D2 receptor, long isoform (spcMyc-DRD2) (P14416, form named): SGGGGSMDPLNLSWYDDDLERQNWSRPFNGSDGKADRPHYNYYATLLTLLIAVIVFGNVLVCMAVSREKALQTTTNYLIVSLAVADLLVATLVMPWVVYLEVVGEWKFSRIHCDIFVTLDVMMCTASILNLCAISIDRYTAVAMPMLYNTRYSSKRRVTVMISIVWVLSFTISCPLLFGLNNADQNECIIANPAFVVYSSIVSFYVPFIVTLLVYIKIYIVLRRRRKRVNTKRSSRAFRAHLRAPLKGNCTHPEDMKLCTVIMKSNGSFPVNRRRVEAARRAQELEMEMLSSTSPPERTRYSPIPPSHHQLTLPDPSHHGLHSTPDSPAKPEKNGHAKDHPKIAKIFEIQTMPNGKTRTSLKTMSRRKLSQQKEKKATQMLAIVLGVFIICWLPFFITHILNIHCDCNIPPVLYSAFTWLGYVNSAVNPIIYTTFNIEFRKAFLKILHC

The target of the test is human ghrelin receptor (spFLAG-GHSR1a) (human) (UniProt Q92847). The experiment in a line: STORM super-resolution microscopy, nearest neighbor distance.

No constants are given. Whether binding was seen depends on the method and setting.

In the case of “human dopamine D2 receptor, long isoform (spcMyc-DRD2) (from UniProt P14416 1-443)”, the binding result is on record as “no binding”.
